Results published in PMC12271568.
No constants are given. Whether binding was seen depends on the method and setting. In cells and extracts the contact can be indirect. Some results given as binding are weak or reduced against the parent protein; the word gives no strength. One block for each substance: values may come before it.

Sequences of proteins named here, by UniProt entry; tags and fusion partners are left off. A change or cut given only in a name is not applied to a line headed by its entry. Residues count along the entry.
UniProt O15455: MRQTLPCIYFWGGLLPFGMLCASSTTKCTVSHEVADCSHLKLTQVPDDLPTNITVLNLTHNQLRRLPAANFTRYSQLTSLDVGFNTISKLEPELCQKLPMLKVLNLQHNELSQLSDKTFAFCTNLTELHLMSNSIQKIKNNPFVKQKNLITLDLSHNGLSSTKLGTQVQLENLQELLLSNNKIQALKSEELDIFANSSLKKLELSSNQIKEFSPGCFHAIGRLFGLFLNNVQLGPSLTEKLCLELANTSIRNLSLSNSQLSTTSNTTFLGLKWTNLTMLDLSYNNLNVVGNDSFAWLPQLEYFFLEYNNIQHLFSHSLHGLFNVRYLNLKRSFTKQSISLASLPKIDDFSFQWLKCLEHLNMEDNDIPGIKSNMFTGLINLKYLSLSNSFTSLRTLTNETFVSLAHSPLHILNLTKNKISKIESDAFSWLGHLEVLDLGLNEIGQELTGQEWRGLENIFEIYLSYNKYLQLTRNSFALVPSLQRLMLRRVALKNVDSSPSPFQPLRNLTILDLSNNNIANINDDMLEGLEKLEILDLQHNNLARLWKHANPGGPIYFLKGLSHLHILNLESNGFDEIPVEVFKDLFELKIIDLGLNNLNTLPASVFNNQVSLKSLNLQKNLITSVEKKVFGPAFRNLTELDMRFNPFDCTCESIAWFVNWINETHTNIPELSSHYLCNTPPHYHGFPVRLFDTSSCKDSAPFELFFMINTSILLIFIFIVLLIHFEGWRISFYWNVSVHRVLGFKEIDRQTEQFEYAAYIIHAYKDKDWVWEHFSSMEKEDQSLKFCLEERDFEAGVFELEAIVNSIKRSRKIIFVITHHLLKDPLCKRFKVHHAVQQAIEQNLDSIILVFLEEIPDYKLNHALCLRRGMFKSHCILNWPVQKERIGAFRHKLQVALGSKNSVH
Flag-TLR3 (Toll-like receptor 3): residues 24-904 of O15455
TLR3-His (24-702aa): residues 24-702 of O15455
UniProt P52294: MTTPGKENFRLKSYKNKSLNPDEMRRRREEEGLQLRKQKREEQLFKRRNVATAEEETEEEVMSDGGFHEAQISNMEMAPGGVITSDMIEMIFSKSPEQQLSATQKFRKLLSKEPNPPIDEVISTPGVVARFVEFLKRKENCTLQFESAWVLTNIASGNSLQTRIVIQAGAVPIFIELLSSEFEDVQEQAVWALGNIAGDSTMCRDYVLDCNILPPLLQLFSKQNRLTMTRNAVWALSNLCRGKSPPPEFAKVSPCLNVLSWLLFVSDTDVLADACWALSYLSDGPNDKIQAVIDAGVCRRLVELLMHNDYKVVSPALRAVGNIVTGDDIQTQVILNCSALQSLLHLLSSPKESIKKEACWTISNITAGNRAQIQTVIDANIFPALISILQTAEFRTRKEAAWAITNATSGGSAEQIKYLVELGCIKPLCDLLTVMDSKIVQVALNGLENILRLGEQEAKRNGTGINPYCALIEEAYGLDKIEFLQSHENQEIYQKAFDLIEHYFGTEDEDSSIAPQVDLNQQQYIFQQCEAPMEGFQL
UniProt O14744: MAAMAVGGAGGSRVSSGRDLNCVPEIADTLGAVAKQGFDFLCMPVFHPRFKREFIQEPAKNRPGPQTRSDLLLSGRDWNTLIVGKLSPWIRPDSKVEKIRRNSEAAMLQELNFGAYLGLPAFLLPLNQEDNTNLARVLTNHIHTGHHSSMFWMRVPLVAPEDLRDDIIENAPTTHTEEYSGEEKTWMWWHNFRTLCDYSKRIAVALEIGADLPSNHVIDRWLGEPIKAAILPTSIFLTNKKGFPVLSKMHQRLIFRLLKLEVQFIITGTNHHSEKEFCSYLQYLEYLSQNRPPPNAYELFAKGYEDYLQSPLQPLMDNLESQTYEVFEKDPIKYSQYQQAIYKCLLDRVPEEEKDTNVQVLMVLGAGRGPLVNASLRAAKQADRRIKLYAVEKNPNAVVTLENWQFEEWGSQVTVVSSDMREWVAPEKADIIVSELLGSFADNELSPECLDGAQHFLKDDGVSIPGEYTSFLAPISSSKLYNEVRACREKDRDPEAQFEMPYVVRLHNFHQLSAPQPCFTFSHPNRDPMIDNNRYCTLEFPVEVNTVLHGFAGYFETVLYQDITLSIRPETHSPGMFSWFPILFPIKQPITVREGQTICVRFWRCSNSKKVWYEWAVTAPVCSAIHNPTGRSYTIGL

Columns and labels:
[1] = biological target: Flag-TLR3 (Toll-like receptor 3) (UniProt O15455); assay: co-IP; Co-IP of TLR3 and importin α5 (Supplementary Fig. 3h); cells and conditions not given
[2] = biological target: Flag-TLR3 (Toll-like receptor 3) (UniProt O15455); assay: co-IP; immunoprecipitation and immunoblot of TLR3 and PRMT5; cytosol and nucleus of TLR3-overexpressing Panc1 cells, and WT and TLR3-overexpressing Panc1 cells, treated with GEM (50 μM) for 24 h; also A549 cells
TLR3-His (24-702aa) = TLR3-His (24-702aa) (UniProt O15455); assay: pull-down; PRMT5-Flag binding to purified His control and TLR3-His (24-702aa); immunoblot with Flag-tag and His-tag antibodies; whether PRMT5-Flag was purified is not told

- binding [1]: binds
Substance: importin α5 (from UniProt P52294 1-538)

- binding [2]: binds
Substance: protein arginine methyltransferase 5 (PRMT5) (from UniProt O14744 1-637)

- binding (TLR3-His (24-702aa)): binds
Substance: PRMT5-Flag (from UniProt O14744 1-637)
